Columns and labels:
[1] = Singlet excitation lifetime (TCSPC); assay type: physicochemical; details: excited at 295 nm
[2] = Fluorescence quenching by triethylamine (Stern-Volmer); assay type: physicochemical; details: Et3N as a quencher
Protocol: The fluorescence quenching by triethylamine (Et3N) was tested in order to gauge relative efficiencies of these compounds as DNA photo-oxidizers. […] The measured singlet lifetimes allowed us to determine the quenching rate constant, kq, which in this system, should be very close in magnitude to the rate of electron transfer, kET. The 2-3-fold increase in the rate of electron transfer from Et3N to excited singlet state of the meta- and ortho-isomers in comparison to the para-isomer is consistent with the well-known photochemical ortho, meta effect of an acceptor substituent. See Zimmerman, H. E., The Meta Effect in Organic Photochemistry: Mechanistic and Exploratory Organic Photochemistry, J. Am. Chem. Soc., 1995, 117, 8988-8991. doi: 10.1021/ja00140a014 and Zimmerman, H. E.; Alabugin, I. V. J. Am. Chem. Soc. 2001, […]. doi: 10.1021/ja002402c.

Compound	τ (singlet lifetime) [1]	Ksv (Stern-Volmer quenching constant) [2]	Ksv (Stern-Volmer quenching constant) ([2]; listed as meta isomer (4))
CC(=O)Nc1cccc(C#Cc2c(F)c(F)nc(F)c2F)c1 [(4) (meta), N-(3-((Perfluoropyridin-4-yl)ethynyl)phenyl)acetamide]	3.35 ± 9.30 × 10^−3 ns	45.5 M⁻¹	45.51 M⁻¹
CC(=O)Nc1ccccc1C#Cc1c(F)c(F)nc(F)c1F [(5) (ortho), N-(2-((Perfluoropyridin-4-yl)ethynyl)phenyl) acetamide]	1.34 ± 3.52 × 10^−3 ns	19.1 M⁻¹	
CC(=O)Nc1ccc(C#Cc2c(F)c(F)nc(F)c2F)cc1 [(3) (para), N-(4-((Perfluoropyridin-4-yl)ethynyl)phenyl)acetamide]	1.26 ± 3.22 × 10^−3 ns	7.11 M⁻¹	

From patent publication US8927728B2, “Dipeptide acetylene conjugates and a method for photocleavage of double strand DNA by dipeptide acetylene conjugates” (The Florida State University Research Foundation, Inc., priority 2011, dated 2015)
